From article PMC6775092
Results are given in words; binding and its absence hold for the method and conditions named.

Amino acid sequences for entries named in this document (tags omitted). A change or cut given only in a name is not applied to a line headed by its entry. Chains listed by the source or under a name are the forms on record and can include a tag or linker.
MAP1LC3C (microtubule associated proteins 1 light chain 3 C), cytosolic LC3C protein of 126 amino acids (Q9BXW4, form named): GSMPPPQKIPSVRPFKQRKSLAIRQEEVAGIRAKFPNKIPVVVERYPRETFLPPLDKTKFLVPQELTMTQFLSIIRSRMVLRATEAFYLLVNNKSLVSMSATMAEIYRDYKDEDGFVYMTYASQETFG

Molecular target: MAP1LC3C (microtubule associated proteins 1 light chain 3 C), cytosolic LC3C protein of 126 amino acids (human) (UniProt Q9BXW4)
Assay: NMR 15N relaxation (overall rotational autocorrelation time); 510 uM [U-15N] LC3C in 20 mM PIPES, 150 mM NaCl, 0.1 mM EDTA, 2% (v/v) glycerol-d8, 10% D2O, pH 6.0; 800 MHz, 20.0 °C; both purified

binding: no binding (tested: 510 uM)
Substance: MAP1LC3C (microtubule associated proteins 1 light chain 3 C), cytosolic LC3C protein of 126 amino acids (from UniProt Q9BXW4 1-126)
